Experimental findings from article PMC2890605 are described below.

Results are given in words; binding and its absence hold for the method and conditions named. Binding seen in cells or lysates may run through a third protein.

For this experiment, the target named is CAN/Nup214 (human (endogenous in HeLa)), P35658. The experiment is described as follows: co-IP; immunoprecipitates from mitotic HeLa cell extracts with anti-Nup214, anti-Nup88 or nonspecific rabbit antibodies (IgG); SDS/PAGE and immunoblotting; 500 ul extract per immunoprecipitation. The conditions noted are these: remark: other sources report otherwise. A general note: In western blotting, separated proteins are transferred to a membrane and probed.

B1: Nup153, P49790 1-1475 (protein)
chain: MASGAGGVGGGGGGKIRTRRCHQGPIKPYQQGRQQHQGILSRVTESVKNIVPGWLQRYFNKNEDVCSCSTDTSEVPRWPENKEDHLVYADEESSNITDGRITPEPAVSNTEEPSTTSTASNYPDVLTRPSLHRSHLNFSMLESPALHCQPSTSSAFPIGSSGFSLVKEIKDSTSQHDDDNISTTSGFSSRASDKDITVSKNTSLPPLWSPEAERSHSLSQHTATSSKKPAFNLSAFGTLSPSLGNSSILKTSQLGDSPFYPGKTTYGGAAAAVRQSKLRNTPYQAPVRRQMKAKQLSAQSYGVTSSTARRILQSLEKMSSPLADAKRIPSIVSSPLNSPLDRSGIDITDFQAKREKVDSQYPPVQRLMTPKPVSIATNRSVYFKPSLTPSGEFRKTNQRIDNKCSTGYEKNMTPGQNREQRESGFSYPNFSLPAANGLSSGVGGGGGKMRRERTRFVASKPLEEEEMEVPVLPKISLPITSSSLPTFNFSSPEITTSSPSPINSSQALTNKVQMTSPSSTGSPMFKFSSPIVKSTEANVLPPSSIGFTFSVPVAKTAELSGSSSTLEPIISSSAHHVTTVNSTNCKKTPPEDCEGPFRPAEILKEGSVLDILKSPGFASPKIDSVAAQPTATSPVVYTRPAISSFSSSGIGFGESLKAGSSWQCDTCLLQNKVTDNKCIACQAAKLSPRDTAKQTGIETPNKSGKTTLSASGTGFGDKFKPVIGTWDCDTCLVQNKPEAIKCVACETPKPGTCVKRALTLTVVSESAETMTASSSSCTVTTGTLGFGDKFKRPIGSWECSVCCVSNNAEDNKCVSCMSEKPGSSVPASSSSTVPVSLPSGGSLGLEKFKKPEGSWDCELCLVQNKADSTKCLACESAKPGTKSGFKGFDTSSSSSNSAASSSFKFGVSSSSSGPSQTLTSTGNFKFGDQGGFKIGVSSDSGSINPMSEGFKFSKPIGDFKFGVSSESKPEEVKKDSKNDNFKFGLSSGLSNPVSLTPFQFGVSNLGQEEKKEELPKSSSAGFSFGTGVINSTPAPANTIVTSENKSSFNLGTIETKSASVAPFTCKTSEAKKEEMPATKGGFSFGNVEPASLPSASVFVLGRTEEKQQEPVTSTSLVFGKKADNEEPKCQPVFSFGNSEQTKDENSSKSTFSFSMTKPSEKESEQPAKATFAFGAQTSTTADQGAAKPVFSFLNNSSSSSSTPATSAGGGIFGSSTSSSNPPVATFVFGQSSNPVSSSAFGNTAESSTSQSLLFSQDSKLATTSSTGTAVTPFVFGPGASSNNTTTSGFGFGATTTSSSAGSSFVFGTGPSAPSASPAFGANQTPTFGQSQGASQPNPPGFGSISSSTALFPTGSQPAPPTFGTVSSSSQPPVFGQQPSQSAFGSGTTPNSSSAFQFGSSTTNFNFTNNSPSGVFTFGANSSTPAASAQPSGSGGFPFNQSPAAFTVGSNGKNVFSSSGTSFSGRKIKTAVRRRK
Regarding B1, the binding entry was “no binding”.
